From PubChem BioAssay AID1117319 (Southern Research Institute, 2015)
The campaign covered roughly 260,000 compounds. About 1,500 (0.58%) were called active. This list was built around the results that the source calls inconclusive (neither active nor inactive); the mix of calls is not that of the screen.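 How the source made its calls: active means inhibition above a set limit at one or more doses, reproduced on every date tested; inconclusive means results disagree between test dates, or hit never tested in dose response; inactive means the rest.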

Sequences of proteins named here, by UniProt entry; tags and fusion partners are left off. A change or cut given only in a name is not applied to a line headed by its entry.
UniProt P69720: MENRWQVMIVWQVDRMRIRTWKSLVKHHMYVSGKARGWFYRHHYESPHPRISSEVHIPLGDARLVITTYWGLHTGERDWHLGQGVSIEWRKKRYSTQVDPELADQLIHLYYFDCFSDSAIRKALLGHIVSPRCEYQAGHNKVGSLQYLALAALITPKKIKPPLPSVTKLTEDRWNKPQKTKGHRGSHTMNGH
UniProt P69721: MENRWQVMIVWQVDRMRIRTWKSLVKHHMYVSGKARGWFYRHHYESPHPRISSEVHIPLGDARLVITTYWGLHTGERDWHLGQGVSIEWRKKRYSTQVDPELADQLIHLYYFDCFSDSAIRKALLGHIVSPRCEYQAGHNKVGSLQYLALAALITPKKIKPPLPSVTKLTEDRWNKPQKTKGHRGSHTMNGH
UniProt P69722: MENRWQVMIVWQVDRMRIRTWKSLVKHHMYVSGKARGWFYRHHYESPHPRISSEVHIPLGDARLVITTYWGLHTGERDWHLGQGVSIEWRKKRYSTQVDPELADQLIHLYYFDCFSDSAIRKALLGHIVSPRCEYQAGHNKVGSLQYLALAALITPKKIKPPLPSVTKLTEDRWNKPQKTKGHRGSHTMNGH
UniProt P69723: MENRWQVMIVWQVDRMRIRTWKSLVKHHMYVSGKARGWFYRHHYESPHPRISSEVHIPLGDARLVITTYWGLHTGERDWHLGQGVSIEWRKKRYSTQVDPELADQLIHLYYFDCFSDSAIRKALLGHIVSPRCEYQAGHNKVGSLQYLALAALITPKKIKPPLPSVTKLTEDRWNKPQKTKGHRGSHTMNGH
UniProt Q9HC16: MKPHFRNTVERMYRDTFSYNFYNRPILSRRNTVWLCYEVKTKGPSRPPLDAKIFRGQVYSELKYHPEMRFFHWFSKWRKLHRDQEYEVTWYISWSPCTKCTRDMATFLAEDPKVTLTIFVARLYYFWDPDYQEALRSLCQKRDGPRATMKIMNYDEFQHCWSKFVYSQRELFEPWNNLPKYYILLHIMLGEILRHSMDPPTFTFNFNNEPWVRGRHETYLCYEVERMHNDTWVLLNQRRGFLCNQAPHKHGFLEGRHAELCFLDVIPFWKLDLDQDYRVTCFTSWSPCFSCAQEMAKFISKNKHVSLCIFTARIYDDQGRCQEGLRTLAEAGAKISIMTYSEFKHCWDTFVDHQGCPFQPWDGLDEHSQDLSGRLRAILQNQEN

Each compound was assayed against Virion infectivity factor (Human immunodeficiency virus type 1 group M subtype B (isolate BH10)) + Virion infectivity factor (Human immunodeficiency virus type 1 group M subtype B (isolate BRU/LAI)) + Virion infectivity factor (Human immunodeficiency virus type 1 group M subtype B (isolate PCV12)) + Virion infectivity factor (Human immunodeficiency virus type 1 group M subtype B (isolate HXB2)) + DNA dC->dU-editing enzyme APOBEC-3G (Homo sapiens) (UniProt P69720+P69721+P69722+P69723+Q9HC16) (assay: inhibitors of Vif binding to APOBEC3G peptide, primary screen, biochemical, TR-FRET, GST-Vif 1-94, biotin-A3G peptide, dose response retest (AID 1117319;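 further: Vif residues 1-94 fused to GST binding biotinylated APOBEC3G peptide 110-148; 0% = full assay without inhibitor and 100% = GST in place of GST-Vif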)). Conditions: hits give high values.

SMILES	inhibition
CCN(CC)S(=O)(=O)c1cccc(C(=O)Oc2cccnc2)c1	inconclusive: 18.8%
O=C(Cc1c(F)cccc1Cl)N1CCN(S(=O)(=O)c2cccc(F)c2)CC1	inactive: -1.72%
C/C=C(\C)c1nnc(NC(=O)OCC)s1	inconclusive: 33.9%
NC(=O)NC1CCCc2c1[nH]c1ccc(Cl)cc21 (stereo not given)	inconclusive: 61.2%
Cc1ccc(NC(=S)NC(=O)/C=C/c2ccco2)c(O)c1	inconclusive: 47%
COC(=O)c1ccc(-c2noc(CN(C)Cc3ccncc3C)n2)cc1	inconclusive: 34.8%
Cc1ccc(-c2cc(C(=O)Nc3ccccc3C)c3ccccc3n2)o1	inactive: 0.87%
CN(Cc1nc(-c2cnccn2)no1)Cc1n[nH]c2c1CCCCC2	inconclusive: 40.6%
O=C(NCCn1cc(SCc2ccc(F)cc2)c2ccccc21)c1c(F)cccc1F	inconclusive: 46.1%
CC(OC(=O)CCCSc1nc2ccccc2s1)C(=O)NC(N)=O (stereo not given)	inconclusive: 35.5%
COCCn1c(SC(C)C(=O)Nc2ncc(Cl)cc2Cl)nc2ccccc21 (stereo not given)	inconclusive: 61.4%
CCOC(=O)C(C)Oc1ccc(C2NC(=O)NC(C)=C2C(C)=O)cc1Br (stereo not given)	inconclusive: 22.2%
COC(=O)c1ccc(CSc2nc(C(F)(F)F)c3c(c2C#N)CCC3)o1	inconclusive: 33.3%
CCCNC(=O)N(C)c1nncnc1C(=O)NC	inconclusive: 37.1%
CC(=O)C1=C(C)NC(SCC(=O)c2ccc(Cl)cc2Cl)=C(C#N)C1c1ccco1 (stereo not given)	inconclusive: 39.3%
Oc1ccc(-c2csc(Nc3ncccn3)n2)cc1O	inconclusive: 47.3%
O=C(COC(=O)Cc1c(Cl)cccc1Cl)Nc1ccc(OC(F)(F)F)cc1	inconclusive: 35.7%
CC(Sc1nnc(COc2ccc([N+](=O)[O-])cc2)n1-c1ccccc1)C(=O)O (stereo not given)	inconclusive: 34.6%
CN(CC(=O)NCc1cccnc1)S(=O)(=O)c1ccc2c(c1)c(=O)n(C)c(=O)n2C	inconclusive: 52.9%
CCOc1cc(C(=S)N2CCOCC2)ccc1OS(=O)(=O)c1ccccc1	inconclusive: 36.2%
COC(=O)c1ccc(COc2ccccc2/C=C(\C#N)C(=O)Nc2ccc(C)cc2)cc1	inactive: -4.01%
S=C(Nc1ccc(Cl)cc1)NC1CCCCC1	inconclusive: 50%
Cc1c(-c2ccccc2)[n+](=O)c2c(n1[O-])CCC2	inconclusive: 34.6%
CCC1CCCCN1CCCNC(=O)CNC(=O)Cn1ccc2ccccc2c1=O (stereo not given)	inconclusive: 27.2%
CN(C)CCCOC(=O)c1ccc(Cl)cc1Cl	inconclusive: 59.3%

Structural class: the entries above containing a cyano group.
SMILES	inhibition
COC(=O)c1ccc(CSc2nc(C(F)(F)F)c3c(c2C#N)CCC3)o1	inconclusive: 33.3%
CC(=O)C1=C(C)NC(SCC(=O)c2ccc(Cl)cc2Cl)=C(C#N)C1c1ccco1 (stereo not given)	inconclusive: 39.3%
COC(=O)c1ccc(COc2ccccc2/C=C(\C#N)C(=O)Nc2ccc(C)cc2)cc1	inactive: -4.01%
